From US4283420A, “Pharmaceutically active cyclohexyl compounds and their preparation” (Labaz, priority 1978, dated 1981)
For at least one compound, name, drawing or mass did not settle the structure.

Test system: male mice
Assay: Sedative activity: Rotarod test
Assay type: in vivo
Conditions: at 790 mg/kg, peroral
Procedure: This test is used for the purpose of assessing the ability of the animals to coordinate their movements. It uses a wooden cylinder which has a diameter of 4.8 cm and revolves at a speed of 4 revolutions/minute. The test is carried out on male mice weighing about 22 g. The products are administered perorally (p.o.) to batches of 10 animals per dose. The animals are placed on the apparatus 15 minutes after administration of the product. The percentage of mice which lose their equilibrium reflex, that is to say which become incapable of retaining their balance on the cylinder for a period of 2 minutes, is noted.
Using the regression straight line method, a 50% neurotoxic dose (NTD 50) is calculated, which thus expresses the average level of the first neuromuscular effects under the influence of the studied product.

O=C(CBr)CC1(C(=O)O)CCCCC1 [Example 47, 1-bromoacetonyl-1-cyclohexyl-carboxylic acid]
Rotarod test, % of failures: 0%
